In publication PMC12512431 one finds binding data, which are given here for two molecules.

For assay [1], the target named is T1, Glucose transporter 9 (GLUT9), Flag-tagged (UniProt Q9NRM0).
T1 sequence: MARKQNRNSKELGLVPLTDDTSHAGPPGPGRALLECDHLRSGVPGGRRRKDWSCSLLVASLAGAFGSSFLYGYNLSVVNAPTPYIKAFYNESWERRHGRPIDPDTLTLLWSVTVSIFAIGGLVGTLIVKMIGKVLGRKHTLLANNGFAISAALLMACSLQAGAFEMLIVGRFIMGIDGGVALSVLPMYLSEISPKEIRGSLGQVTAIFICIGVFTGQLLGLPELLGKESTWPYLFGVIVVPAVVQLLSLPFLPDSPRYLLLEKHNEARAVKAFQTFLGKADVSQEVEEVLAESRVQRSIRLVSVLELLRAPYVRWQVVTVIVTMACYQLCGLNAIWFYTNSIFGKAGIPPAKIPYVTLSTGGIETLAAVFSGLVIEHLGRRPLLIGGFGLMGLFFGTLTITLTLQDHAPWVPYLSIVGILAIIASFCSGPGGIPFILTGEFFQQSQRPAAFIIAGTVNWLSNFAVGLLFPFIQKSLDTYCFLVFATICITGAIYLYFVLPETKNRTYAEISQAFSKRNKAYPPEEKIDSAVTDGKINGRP
The assay is described as follows: co-IP; lysate of transfected HEK293 / HEK 293 T cells overexpressing TXNIP-HA and GLUT9-Flag; IP with anti-HA or anti-Flag antibody (rabbit IgG as control), Protein A/G magnetic beads, 4 °C overnight, washed with IP buffer, Western blot. Background: Immunoblotting shows a protein as a band on a membrane.

Assay [2] concerns the target T2, Thioredoxin Interacting Protein (TXNIP), HA-tagged (UniProt Q9H3M7).
T2 sequence: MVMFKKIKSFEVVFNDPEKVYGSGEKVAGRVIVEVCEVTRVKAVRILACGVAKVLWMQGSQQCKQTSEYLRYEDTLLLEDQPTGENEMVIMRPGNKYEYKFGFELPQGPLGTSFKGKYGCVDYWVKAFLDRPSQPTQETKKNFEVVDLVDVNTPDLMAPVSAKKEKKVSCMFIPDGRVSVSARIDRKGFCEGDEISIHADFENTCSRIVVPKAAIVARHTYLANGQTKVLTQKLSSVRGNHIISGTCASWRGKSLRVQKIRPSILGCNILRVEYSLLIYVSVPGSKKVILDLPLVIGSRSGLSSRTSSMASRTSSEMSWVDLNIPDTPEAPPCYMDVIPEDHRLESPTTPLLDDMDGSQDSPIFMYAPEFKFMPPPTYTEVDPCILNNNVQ
The description is as above.

Results are given in words; binding and its absence hold for the method and conditions named. In cells and extracts the contact can be indirect. Some results given as binding are weak or reduced against the parent protein; the word gives no strength. Tags and fused reporters may be left off the sequences shown.

B1: Thioredoxin Interacting Protein (TXNIP), HA-tagged (protein, UniProt Q9H3M7 1-391)
chain: T2 sequence
On to B1, for which, in assay [1], the binding entry is listed as “binds”.

B2: Glucose transporter 9 (GLUT9), Flag-tagged (protein, UniProt Q9NRM0 1-540)
chain: T1 sequence
For the molecule B2, the binding entry in assay [2] was “binds”.
